Laboratory results as given in patent US7557111B2, “Substituted thieno[3,2-d]pyrimidines as CRF receptor antagonists” (Taisho Pharmaceutical Co., Ltd., priority 2004, dated 2009).
Structures can show the parent of a compound that is named as a salt. Some entries share one result that the patent states for a list of compounds.

biological target: T1, CRF receptor (Macaca mulatta, UniProt Q76LL8); test: CRF receptor binding test (125I-CRF, monkey amygdala membranes); details: 0.2 nM 125I-CRF, 25° C., 2 hours, read-out: IC50 (concentration of the test drug at which binding of 125I-CRF is inhibited by 50%)
T1 sequence (Q76LL8 24-415): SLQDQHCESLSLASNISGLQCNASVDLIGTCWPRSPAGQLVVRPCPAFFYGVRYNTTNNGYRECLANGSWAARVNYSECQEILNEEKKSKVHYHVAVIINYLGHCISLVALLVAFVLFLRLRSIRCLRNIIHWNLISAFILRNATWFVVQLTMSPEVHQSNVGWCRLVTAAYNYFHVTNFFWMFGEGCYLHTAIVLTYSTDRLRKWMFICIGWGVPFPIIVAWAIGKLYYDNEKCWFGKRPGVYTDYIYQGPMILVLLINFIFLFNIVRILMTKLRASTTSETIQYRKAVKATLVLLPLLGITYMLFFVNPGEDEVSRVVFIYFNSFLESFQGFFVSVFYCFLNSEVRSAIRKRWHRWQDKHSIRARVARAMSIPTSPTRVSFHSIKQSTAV

IC50, ≤ 100 nM:
Cc1nc(N2CCC(CO)CC2)c2scc(-c3c(C)cc(Br)cc3C)c2n1 [1-003, {1-[7-(4-bromo-2,6-dimethyl-phenyl)-2-methyl-thieno[3,2-d]pyrimidin-4-yl]-piperidin-4-yl}-methanol]
Cc1nc(N2CCC(CCO)CC2)c2sc(C)c(-c3c(C)cc(Br)cc3C)c2n1 [1-006, 2-{1-[7-(4-bromo-2,6-dimethyl-phenyl)-2,6-dimethyl-thieno[3,2-d]pyrimidin-4-yl]-piperidin-4-yl}-ethanol]
Cc1nc(N2CCC(CC#N)CC2)c2sc(C)c(-c3c(C)cc(Br)cc3C)c2n1 [1-010, {1-[7-(4-bromo-2,6-dimethyl-phenyl)-2,6-dimethyl-thieno[3,2-d]pyrimidin-4-yl]-piperidin-4-yl}-acetonitrile]
Cc1cc(N2CCC(CO)CC2)c2scc(-c3c(C)cc(Br)cc3C)c2n1 [1-014, {1-[3-(4-bromo-2,6-dimethyl-phenyl)-5-methyl-thieno[3,2-b]pyridin-7-yl]-piperidin-4-yl}-methanol]
Cc1cc(N2CCC(CO)CC2)c2sc(C)c(-c3c(C)cc(Br)cc3C)c2n1 [1-015, {1-[3-(4-bromo-2,6-dimethyl-phenyl)-2,5-dimethyl-thieno[3,2-b]pyridin-7-yl]-piperidin-4-yl}-methanol]
Cc1cc(N2CCC(CCO)CC2)c2scc(-c3c(C)cc(Br)cc3C)c2n1 [1-018, 2-{1-[3-(4-bromo-2,6-dimethyl-phenyl)-5-methyl-thieno[3,2-b]pyridin-7-yl]-piperidin-4-yl}-ethanol]
Cc1cc(N2CCC(CCO)CC2)c2sc(C)c(-c3c(C)cc(Br)cc3C)c2n1 [1-019, 2-{1-[3-(4-bromo-2,6-dimethyl-phenyl)-2,5-dimethyl-thieno[3,2-b]pyridin-7-yl]-piperidin-4-yl}-ethanol]
Cc1cc(N2CCC(CC#N)CC2)c2scc(-c3c(C)cc(Br)cc3C)c2n1 [1-025, {1-[3-(4-bromo-2,6-dimethyl-phenyl)-5-methyl-thieno[3,2-b]pyridin-7-yl]-piperidin-4-yl}-acetonitrile]
Cc1cc(N2CCC(CC#N)CC2)c2sc(C)c(-c3c(C)cc(Br)cc3C)c2n1 [1-026, {1-[3-(4-bromo-2,6-dimethyl-phenyl)-2,5-dimethyl-thieno[3,2-b]pyridin-7-yl]-piperidin-4-yl}-acetonitrile]
Cc1nc(N2CCC(CO)CC2)c2sc(C)c(-c3c(C)cc(Br)cc3C)c2n1 [compound 1-004, {1-[7-(4-bromo-2,6-dimethyl-phenyl)-2,6-dimethyl-thieno[3,2-d]pyrimidin-4-yl]-piperidin-4-yl}-methanol hydrochloride]
